# Some of the results follow. This data set is noisy: repeats of one test often differ as much as different tests do.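 A first-round screen of about ten thousand compounds sought those raising reporter output, using human embryonic kidney cells briefly transfected with a plasmid carrying a Renilla luciferase gene driven by the HSV-TK promoter.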
# Test system: HEK 293FT
# Assay: log relative Renilla luciferase luminescence (reporter expression vs reference, reference not stated) (log (base not stated)); higher = higher recombinant reporter expression
# Conditions: 10 µM; time after transfection 48 h
# Method: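 HEK 293FT cells transiently transfected with pRL-TK (Renilla luciferase) were treated with compounds at 10 uM and luminescence was read about 42 h later. Values are log relative Renilla luminescence (log base and reference not stated). Single-pass screen; ICCB Known Bioactives library.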
row,SMILES,log
1,CCCCCCCCCCCCCCC[C@@H](O)[C@@H](N)CO [Dihydrosphingosine],-0.0844
2,CCCCCCCCCCC1=C(C)C(=O)C(OC)=C(OC)C1=O [Decylubiquinone],0.169
3,Cc1coc2c1C(=O)C(=O)c1c-2ccc2c1CCCC2(C)C [Tanshinone IIA],-0.064
4,"CCCCCCCCCCCCCCCC(=O)OCC(COP(=O)(O)O)OC(=O)CCCCCCCCCCCCCCC (centres undefined) [Phosphatidic acid, dipalmitoyl]",-0.0854
5,C[C@]12CC[C@@H]3c4ccc(O)cc4CC[C@H]3[C@@H]1CC[C@@H]2O [Estradiol],0.262
6,O=C(O)c1ccccc1Nc1cccc(C(F)(F)F)c1 [Flufenamic acid],0.0822
7,CCCCc1oc2ccccc2c1C(=O)c1cc(I)c(OCCN(CC)CC)c(I)c1 [Amiodarone],-0.165
8,CC[C@]1(O)C[C@@H]2CN(CCc3c([nH]c4ccccc34)[C@@](C(=O)OC)(c3cc4c(cc3OC)N(C)[C@H]3[C@@](O)(C(=O)OC)[C@H](OC(C)=O)[C@]5(CC)C=CCN6CC[C@]43[C@@H]65)C2)C1 [Vinblastine],-0.248
9,Nc1ncnc2c1nc(Br)n2C1O[C@H]2COP(=O)(O)O[C@@H]2[C@@H]1O (some centres undefined) [Bromo-cAMP [8-Bromo-cAMP]],-0.151
10,CCCCC[C@H](O)/C=C/[C@H]1C=CC(=O)[C@@H]1C/C=C\CCCC(=O)O [Prostaglandin A2],-0.219
11,CCOC(=O)C(C)(C)Oc1ccc(Cl)cc1 [Clofibrate],0.0641
12,CCCCC[C@H](O)/C=C/C1=C(C/C=C\CCCC(=O)O)C(=O)CC1 [Prostaglandin B2],0.0491
13,Cc1ccc(N(CC2=NCCN2)c2cccc(O)c2)cc1 [Phentolamine],-0.399
14,CCCCCCCCCCCCC/C=C/[C@@H](O)[C@@H](N)CO [Sphingosine],-0.149
15,CCCCC/C=C\C/C=C\C/C=C\C=C\[C@@H](O)CCCC(=O)O,0.0772
16,CCCCC[C@H](O)/C=C/[C@@H]1[C@@H](C/C=C\CCCC(=O)O)[C@@H](O)C[C@H]1O [Prostaglandin F2a],-0.117
17,CC(N/C(=N\C#N)Nc1ccncc1)C(C)(C)C (centres undefined) [Pinacidil],0.166
18,C=C[C@H]1CN2CC[C@H]1C[C@H]2[C@H](O)c1ccnc2ccc(OC)cc12 [Quinine],0.101
19,"CCCCC[C@H](O)/C=C/[C@@H]1[C@@H](C/C=C\CCCC(=O)O)[C@@H](O)C[C@@H]1O [9alpha,11beta-Prostaglandin F2]",-0.185
20,CCCCCCCCCCCCCCCCOCC(COP(=O)([O-])OCC[N+](C)(C)C)OC (centres undefined) [1-Hexadecyl-2-methylglycero-3 PC],0.248

# Quoted at random: 2 records from the list.
row,SMILES,log
9,Nc1ncnc2c1nc(Br)n2C1O[C@H]2COP(=O)(O)O[C@@H]2[C@@H]1O (some centres undefined) [Bromo-cAMP [8-Bromo-cAMP]],-0.151
3,Cc1coc2c1C(=O)C(=O)c1c-2ccc2c1CCCC2(C)C [Tanshinone IIA],-0.064

# (cont.)

row,SMILES,log
1,CCCCCCCC/C=C\CCCCCCCC(=O)OC[C@@H](O)COP(=O)(O)O [Lysophosphatidic acid],-0.307
2,COC(=O)C1=C(C)NC(C)=C([N+](=O)[O-])C1c1ccccc1C(F)(F)F (centres undefined),-0.177
3,COC(=O)C[C@H](NC(=O)[C@H](C)NC(=O)[C@@H](NC(=O)OCc1ccccc1)C(C)C)C(=O)CF,-0.116
4,CC(=O)[C@H]1[C@H](C#N)C[C@H]2[C@@H]3CC=C4C[C@@H](O)CC[C@]4(C)[C@H]3CC[C@@]21C [Pregnenolone 16a carbonitrile],-0.181
5,COc1ccc(C[C@H](N)C(=O)N[C@H]2[C@@H](O)[C@H](n3cnc4c(N(C)C)ncnc43)O[C@@H]2CO)cc1 [Puromycin],-1.53
6,CCCCCCCC/C=C\CCCCCCCCOC[C@H](COP(=O)([O-])OCC[N+](C)(C)C)OC(C)=O,0.0181
7,"CC(C)(C)c1cc(O)c(C(C)(C)C)cc1O [2,5-Ditertbutylhydroquinone]",-1.27
8,COc1ccc(Cl)cc1C(=O)NCCc1ccc(S(=O)(=O)NC(=O)NC2CCCCC2)cc1 [Glyburide],0.305
9,CC(C)=CC[C@@H](O)C1=CC(=O)c2c(O)ccc(O)c2C1=O [Shikonin],-0.77
10,O=C1NCN(c2ccccc2)C12CCN(CCCC(c1ccc(F)cc1)c1ccc(F)cc1)CC2 [Fluspiriline],-0.482
11,"CCCCCC(O)C=CC1C(O)CC(O)C1CC=CCCCC(=O)O (stereo not drawn) [9beta,11alpha-Prostaglandin F2]",-0.0928
12,O=C(O)CCCC=CCC1C(=O)CC(O)C1C=CC(O)CCc1ccccc1 (centres undefined) [17-Phenyl-trinor-prostaglandin E2],0.14
13,CCCCC[C@H](O)/C=C/[C@@H]1[C@@H](CC(=O)CCCCC(=O)O)[C@@H](O)C[C@H]1O [6-Keto-prostaglandin F1a],-0.07
14,CC(C)(Oc1ccc(CCNC(=O)c2ccc(Cl)cc2)cc1)C(=O)O [Bezafibrate],-0.433
15,CCCCCCCCCCCCCCCCCCOC[C@H](COP(=O)([O-])OCC[N+](C)(C)C)OC(C)=O,-0.159
16,CC(C)CC(=O)N[C@H](C(=O)N[C@H](C(=O)N[C@@H](CC(C)C)[C@@H](O)CC(=O)N[C@@H](C)C(=O)N[C@@H](CC(C)C)[C@@H](O)CC(=O)O)C(C)C)C(C)C [Pepstatin],-0.41
17,CCCCC[C@H](O)CC(=O)CCc1ccc(O)c(OC)c1 [Gingerol],0.238
18,Cc1c2oc3c(C)ccc(C(=O)N[C@@H]4C(=O)N[C@H](C(C)C)C(=O)N5CCC[C@H]5C(=O)N(C)CC(=O)N(C)[C@@H](C(C)C)C(=O)O[C@@H]4C)c3nc-2c(C(=O)N[C@@H]2C(=O)N[C@H](C(C)C)C(=O)N3CCC[C@H]3C(=O)N(C)CC(=O)N(C)[C@@H](C(C)C)C(=O)O[C@@H]2C)c(N)c1=O [Actinomycin D],-1.45
19,CCCCCC(O)CC=C1C(=O)C=CC1CC=CCCCC(=O)O (centres undefined) [Delta 12-Prostaglandin J2],0.137

# Source: the supplement of paper PMC7024190
